In patent publication US20220389111A1 (SHANGHAI EPIMAB BIOTHERAPEUTICS, published 2022):
These are yes or no findings as the source states them, for the method shown. Some results given as binding are weak or reduced against the parent protein; the word gives no strength.

T1: human CD39 protein (recombinant) (human, UniProt P49961 38-478, limits assumed)
T1 sequence: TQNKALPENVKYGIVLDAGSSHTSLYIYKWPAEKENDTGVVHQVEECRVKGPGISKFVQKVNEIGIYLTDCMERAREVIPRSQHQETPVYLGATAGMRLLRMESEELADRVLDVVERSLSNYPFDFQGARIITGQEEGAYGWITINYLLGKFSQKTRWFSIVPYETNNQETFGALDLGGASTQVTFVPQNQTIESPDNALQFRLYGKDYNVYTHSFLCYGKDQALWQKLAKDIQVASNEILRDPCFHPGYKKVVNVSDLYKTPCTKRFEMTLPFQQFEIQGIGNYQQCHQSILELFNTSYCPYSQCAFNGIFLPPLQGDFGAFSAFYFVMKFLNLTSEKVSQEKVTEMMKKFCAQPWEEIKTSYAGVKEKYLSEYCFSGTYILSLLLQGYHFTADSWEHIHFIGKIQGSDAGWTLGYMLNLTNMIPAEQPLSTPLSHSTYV


Target: cynomolgus monkey CD39 on CHO-K1 cells (cynomolgus monkey)
Test: FACS on CHO-K1-cyno CD39 cells

binding | Binder
binds | mAb638 (antibody, V domains shown, mouse anti-human CD39 hybridoma mAb, IgG1, κ) VH: QVQLQQPGTELVKPGASVKLSCKASGYTFTSFWMHWVKQRPGQGLEWIGNINPRNGATKYNEKFRSKVTLTADKTSSTAYMHLSSLTSEDSAVYYCAREDYDEIYYAMDSWGQGTSVTVSS VL: QNVLTQSPAIMSASPGEKVTMTCSASSSVIYMYWFQQKPGSSPRVLIYDTSNLASGVPARFSGSGSGTSYSLTISRMEAEDAATYYCQQWSTYPLTFGAGTKLELK

Target: T1, human CD39 protein (recombinant)
Test: ELISA on coated human CD39 protein
Method: To determine if anti-CD39 mAbs bind to human CD39, ELISA plates were incubated overnight at 4° C. with human CD39 protein or mouse CD39 protein diluted in PBS, pH7.4 buffer at 1 μg/ml. Plates were washed four times in washing buffer (PBS containing 0.05% Tween 20), and blocked for 1 hour at 37° C. with 200 μl per well blocking buffer (1% BSA in PBS containing 0.05% Tween 20). After blocking buffer was removed, hybridoma supernatant or diluted purified Abs were added to the wells at 100 μl per well and incubated at 37° C. for 1 hour. The wells were washed four times with washing buffer, and anti-mouse HRP (for mouse anti-human CD39 Ab characterization) or anti-rat HRP (for rat anti-mouse CD39 Ab characterization) (Sigma) were 1:5000 diluted and added to the wells at 100 μl per well. The plates were incubated for 1 hour at 37° C. and washed four times in washing buffer. 100 μl of tetramethylbenzidine (TMB) chromogenic solution were added per well. Following color development, the reaction was stopped with 1N HCl, and absorbance at 450 nm was measured. The data were proceeded by GraphPad software.
Humanized antibodies HuEM04-38-6 to HuEM0004-38-20 and chimeric antibodies EM04-38c, EM004-38c1, and EM0004-38c2 were tested for CD39 specific binding by ELISA as described in Example 1.2 and for inhibition of protein-based ATPase activity as described in Example 1.3.

Binder | binding
EM0004-38c1 (antibody, human IgG1, kappa, L234A L235A, name in Kabat numbering, V domains shown, chimeric mAb638 variant; also called EM004-38c1) VH: QVQLQQPGTELVKPGASVKLSCKASGYTFTSFWMHWVKQRPGQGLEWIGNINPRQGATKYNEKFRSKVTLTADKTSSTAYMHLSSLTSEDSAVYYCAREDYDEIYYAMDSWGQGTSVTVSS VL: QNVLTQSPAIMSASPGEKVTMTCSASSSVIYMYWFQQKPGSSPRVLIYDTSNLASGVPARFSGSGSGTSYSLTISRMEAEDAATYYCQQWSTYPLTFGAGTKLELKR | binds
EM0004-38c2 (antibody, human IgG1, kappa, L234A L235A, name in Kabat numbering, V domains shown, chimeric mAb638 variant) VH: QVQLQQPGTELVKPGASVKLSCKASGYTFTSFWMHWVKQRPGQGLEWIGNINPRNAATKYNEKFRSKVTLTADKTSSTAYMHLSSLTSEDSAVYYCAREDYDEIYYAMDSWGQGTSVTVSS VL: QNVLTQSPAIMSASPGEKVTMTCSASSSVIYMYWFQQKPGSSPRVLIYDTSNLASGVPARFSGSGSGTSYSLTISRMEAEDAATYYCQQWSTYPLTFGAGTKLELKR | binds
HuEM0004-38-17 (antibody, human IgG1, kappa, L234A L235A, V domains shown, humanized mAb638, human IgG1/kappa) VH: EVQLVQSGAEVKKPGASVKVSCKASGYTFTSFWMHWVRQAPGQGLEWMGNINPRNGATKYNEKFRSRVTMTADKSISTAYMELSRLRSDDTAVYYCAREDYDEIYYAMDSWGQGTTVTVSS VL: ENVLTQSPATLSLSPGERATLSCSASSSVIYMYWFQQKPGQSPRVLIYDTSNLASGVPARFSGSGSGTDYTLTISSLEPEDFAVYYCQQWSTYPLTFGQGTKLEIKR | binds

Continued, values first:

binding | Binder
binds | HuEM0004-38-18 (antibody, human IgG1, kappa, L234A L235A, V domains shown, humanized mAb638, human IgG1/kappa) VH: EVQLVQSGAEVKKPGASVKVSCKASGYTFTSFWMHWVRQAPGQGLEWMGNINPRNGATKYNEKFRSRVTLTADKSISTAYMELSRLRSDDTAVYYCAREDYDEIYYAMDSWGQGTTVTVSS VL: ENVLTQSPATLSLSPGERATLSCSASSSVIYMYWFQQKPGQSPRVLIYDTSNLASGVPARFSGSGSGTDYTLTISSLEPEDFAVYYCQQWSTYPLTFGQGTKLEIKR
binds | HuEM0004-38-19 (antibody, human IgG1, kappa, L234A L235A, V domains shown, humanized mAb638, human IgG1/kappa) VH: EVQLVQSGAEVKKPGASVKVSCKASGYTFTSFWMHWVRQAPGQGLEWIGNINPRNGATKYNEKFRSRVTLTADKSISTAYMELSRLRSDDTAVYYCAREDYDEIYYAMDSWGQGTTVTVSS VL: ENVLTQSPATLSLSPGERATLSCSASSSVIYMYWFQQKPGQSPRVLIYDTSNLASGVPARFSGSGSGTDYTLTISSLEPEDFAVYYCQQWSTYPLTFGQGTKLEIKR
